# Experimental data from the supplement of paper PMC8728848.
# This is one part of the list.
# Columns and labels:
# Experiment in all cases: glycan array binding signal (z-score within array); higher = stronger binding
# Settings in all cases: glycan notation: IUPAC condensed, linker removed
# [1] = target: Fuc(a1-2)Gal
# How it was run: (§1)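 From the Consortium for Functional Glycomics database, 3228 arrays were curated, keeping only those whose protein sequence was available. Binding is given as a within-array Z-score averaged across arrays sharing a protein sequence and across linkers. Negative Z-scores can be read as non-binding.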
# [2] = target: Fuc(a1-2)Gal(b1-3)GalNAc
# How it was run: as §1
# [3] = target: Fuc(a1-2)Gal(b1-3)GalNAc(a1-3)[Fuc(a1-2)]Gal(b1-4)Glc
# How it was run: as §1
# [4] = target: Fuc(a1-2)Gal(b1-3)GalNAc(a1-3)[Fuc(a1-2)]Gal(b1-4)GlcNAc
# How it was run: as §1
# [5] = target: Fuc(a1-2)Gal(b1-3)GalNAc(b1-3)Gal
# How it was run: as §1
# [6] = target: Fuc(a1-2)Gal(b1-3)GalNAc(b1-3)Gal(a1-4)Gal(b1-4)Glc
# How it was run: as §1
# [7] = target: Fuc(a1-2)Gal(b1-3)GalNAc(b1-4)[Neu5Ac(a2-3)]Gal(b1-4)Glc
# How it was run: as §1
# [8] = target: Fuc(a1-2)Gal(b1-3)GlcNAc
# How it was run: as §1
# [9] = target: Fuc(a1-2)Gal(b1-3)GlcNAc(b1-2)Man(a1-3)[Fuc(a1-2)Gal(b1-3)GlcNAc(b1-2)Man(a1-6)]Man(b1-4)GlcNAc(b1-4)GlcNAc
# How it was run: as §1
# [10] = target: Fuc(a1-2)Gal(b1-3)GlcNAc(b1-2)Man(a1-3)[Fuc(a1-2)Gal(b1-3)GlcNAc(b1-2)Man(a1-6)]Man(b1-4)GlcNAc(b1-4)[Fuc(a1-6)]GlcNAc
# How it was run: as §1
# [11] = target: Fuc(a1-2)Gal(b1-3)GlcNAc(b1-3)Gal(b1-4)Glc
# How it was run: as §1
# [12] = target: Fuc(a1-2)Gal(b1-3)GlcNAc(b1-3)GalNAc
# How it was run: as §1
# [13] = target: Fuc(a1-2)Gal(b1-3)GlcNAc(b1-3)[Fuc(a1-3)[Gal(b1-4)]GlcNAc(b1-6)]Gal(b1-4)Glc
# How it was run: as §1
# [14] = target: Fuc(a1-2)Gal(b1-3)GlcNAc(b1-3)[Gal(b1-4)GlcNAc(b1-6)]Gal(b1-4)Glc
# How it was run: as §1
# [15] = target: Fuc(a1-2)Gal(b1-3)GlcNAc(b1-3)[Neu5Ac(a2-6)Gal(b1-4)GlcNAc(b1-6)]Gal(b1-4)Glc
# How it was run: as §1
# [16] = target: Fuc(a1-2)Gal(b1-3)[Fuc(a1-4)]GlcNAc
# How it was run: as §1
# [17] = target: Fuc(a1-2)Gal(b1-3)[Fuc(a1-4)]GlcNAc(b1-2)Man(a1-3)[Fuc(a1-2)Gal(b1-3)[Fuc(a1-4)]GlcNAc(b1-2)Man(a1-6)]Man(b1-4)GlcNAc(b1-4)GlcNAc
# How it was run: as §1
# [18] = target: Fuc(a1-2)Gal(b1-3)[Fuc(a1-4)]GlcNAc(b1-3)[Fuc(a1-3)[Gal(b1-4)]GlcNAc(b1-6)]Gal(b1-4)Glc
# How it was run: as §1
# [19] = target: Fuc(a1-2)Gal(b1-3)[Fuc(a1-4)]GlcNAc(b1-3)[Gal(b1-4)GlcNAc(b1-6)]Gal(b1-4)Glc
# How it was run: as §1
# [20] = target: Fuc(a1-2)Gal(b1-4)Glc
# How it was run: as §1
# [21] = target: Fuc(a1-2)Gal(b1-4)Glc6S
# How it was run: as §1
# [22] = target: Fuc(a1-2)Gal(b1-4)GlcNAc
# How it was run: as §1
# [23] = target: Fuc(a1-2)Gal(b1-4)GlcNAc(b1-2)Man(a1-3)[Fuc(a1-2)Gal(b1-4)GlcNAc(b1-2)Man(a1-6)]Man(b1-4)GlcNAc(b1-4)GlcNAc
# How it was run: as §1
# [24] = target: Fuc(a1-2)Gal(b1-4)GlcNAc(b1-2)Man(a1-3)[Fuc(a1-2)Gal(b1-4)GlcNAc(b1-2)Man(a1-6)]Man(b1-4)GlcNAc(b1-4)[Fuc(a1-6)]GlcNAc
# How it was run: as §1
# [25] = target: Fuc(a1-2)Gal(b1-4)GlcNAc(b1-2)[Fuc(a1-2)Gal(b1-4)GlcNAc(b1-4)]Man(a1-3)[Fuc(a1-2)Gal(b1-4)GlcNAc(b1-2)Man(a1-6)]Man(b1-4)GlcNAc(b1-4)GlcNAc
# How it was run: as §1
# [26] = target: Fuc(a1-2)Gal(b1-4)GlcNAc(b1-3)Gal(b1-4)GlcNAc
# How it was run: as §1
# [27] = target: Fuc(a1-2)Gal(b1-4)GlcNAc(b1-3)Gal(b1-4)GlcNAc(b1-3)Gal(b1-4)GlcNAc
# How it was run: as §1
# [28] = target: Fuc(a1-2)Gal(b1-4)GlcNAc(b1-3)GalNAc
# How it was run: as §1
# [29] = target: Fuc(a1-2)Gal(b1-4)GlcNAc(b1-3)[Fuc(a1-2)Gal(b1-4)GlcNAc(b1-6)]GalNAc
# How it was run: as §1
# [30] = target: Fuc(a1-2)Gal(b1-4)GlcNAc6S
# How it was run: as §1
# [31] = target: Fuc(a1-2)Gal(b1-4)[Fuc(a1-3)]GlcNAc
# How it was run: as §1
# [32] = target: Fuc(a1-2)Gal(b1-4)[Fuc(a1-3)]GlcNAc(b1-2)Man(a1-3)[Fuc(a1-2)Gal(b1-4)[Fuc(a1-3)]GlcNAc(b1-2)Man(a1-6)]Man(b1-4)GlcNAc(b1-4)GlcNAc
# How it was run: as §1
# [33] = target: Fuc(a1-2)Gal(b1-4)[Fuc(a1-3)]GlcNAc(b1-2)[Fuc(a1-2)Gal(b1-4)[Fuc(a1-3)]GlcNAc(b1-4)]Man(a1-3)[Fuc(a1-2)Gal(b1-4)[Fuc(a1-3)]GlcNAc(b1-2)Man(a1-6)]Man(b1-4)GlcNAc(b1-4)GlcNAc
# How it was run: as §1
# [34] = target: Fuc(a1-2)Gal(b1-4)[Fuc(a1-3)]GlcNAc(b1-3)Gal(b1-4)[Fuc(a1-3)]GlcNAc
# How it was run: as §1
# [35] = target: Fuc(a1-2)Gal(b1-4)[Fuc(a1-3)]GlcNAc(b1-3)Gal(b1-4)[Fuc(a1-3)]GlcNAc(b1-3)Gal(b1-4)[Fuc(a1-3)]GlcNAc
# How it was run: as §1
# [36] = target: Fuc(a1-2)Gal(b1-4)[Fuc(a1-3)]GlcNAc(b1-3)GalNAc
# How it was run: as §1
# [37] = target: Fuc(a1-2)Gal6S(b1-4)Glc
# How it was run: as §1
binder,measurement,setting,value
"DCL-1 (Homo sapiens), Q8IX05 (protein) MLRAALPALLLPLLGLAAAAVADCPSSTWIQFQDSCYIFLQEAIKVESIEDVRNQCTDHGADMISIHNEEENAFILDTLKKQWKGPDDILLGMFYDTDDASFKWFDNSNMTFDKWTDQDDDEDLVDTCAFLHIKTGEWKKGNCEVSSVEGTLCKTAIPYKRKYLSDNHILISALVIASTVILTVLGAIIWFLYKKHSDSRFTTVFSTAPQSPYNEDCVLVVGEENEYPVQFD",glycan array binding signal (z-score),[1],0.287
same,glycan array binding signal (z-score),[2],-0.446
same,glycan array binding signal (z-score),[3],0.327
same,glycan array binding signal (z-score),[4],-0.462
same,glycan array binding signal (z-score),[5],-0.911
same,glycan array binding signal (z-score),[6],-0.425
same,glycan array binding signal (z-score),[7],0.172
same,glycan array binding signal (z-score),[8],-0.064
same,glycan array binding signal (z-score),[9],0.687
same,glycan array binding signal (z-score),[10],-0.216
same,glycan array binding signal (z-score),[11],-0.715
same,glycan array binding signal (z-score),[12],-0.539
same,glycan array binding signal (z-score),[13],0.156
same,glycan array binding signal (z-score),[14],-0.56
same,glycan array binding signal (z-score),[15],1.28
same,glycan array binding signal (z-score),[16],-0.435
same,glycan array binding signal (z-score),[17],-0.488
same,glycan array binding signal (z-score),[18],0.041
same,glycan array binding signal (z-score),[19],-0.421
same,glycan array binding signal (z-score),[20],0.028
same,glycan array binding signal (z-score),[21],-0.559
same,glycan array binding signal (z-score),[22],0.187
same,glycan array binding signal (z-score),[23],-0.355
same,glycan array binding signal (z-score),[24],0.659
same,glycan array binding signal (z-score),[25],-0.471
same,glycan array binding signal (z-score),[26],0.928
same,glycan array binding signal (z-score),[27],0.567
same,glycan array binding signal (z-score),[28],1.21
same,glycan array binding signal (z-score),[29],0.508
same,glycan array binding signal (z-score),[30],-0.457
same,glycan array binding signal (z-score),[31],0.133
same,glycan array binding signal (z-score),[32],0.932
same,glycan array binding signal (z-score),[33],-0.152
same,glycan array binding signal (z-score),[34],0.568
same,glycan array binding signal (z-score),[35],1.28
same,glycan array binding signal (z-score),[36],1.87
same,glycan array binding signal (z-score),[37],-0.711

# Part of the list above, with bars between the fields.
binder | measurement | setting | value
DCL-1 (Homo sapiens), Q8IX05 (protein) MLRAALPALLLPLLGLAAAAVADCPSSTWIQFQDSCYIFLQEAIKVESIEDVRNQCTDHGADMISIHNEEENAFILDTLKKQWKGPDDILLGMFYDTDDASFKWFDNSNMTFDKWTDQDDDEDLVDTCAFLHIKTGEWKKGNCEVSSVEGTLCKTAIPYKRKYLSDNHILISALVIASTVILTVLGAIIWFLYKKHSDSRFTTVFSTAPQSPYNEDCVLVVGEENEYPVQFD | glycan array binding signal (z-score) | [21] | -0.559
same | glycan array binding signal (z-score) | [28] | 1.21
